Measurements from the supplement of paper PMC10849652.
This is one part of the list.

By UniProt entry, the sequences of proteins in these tests, tags left out. Where a name states a change or a piece, a line headed by the entry shows the natural chain unless it says otherwise.
UniProt Q9H0L4: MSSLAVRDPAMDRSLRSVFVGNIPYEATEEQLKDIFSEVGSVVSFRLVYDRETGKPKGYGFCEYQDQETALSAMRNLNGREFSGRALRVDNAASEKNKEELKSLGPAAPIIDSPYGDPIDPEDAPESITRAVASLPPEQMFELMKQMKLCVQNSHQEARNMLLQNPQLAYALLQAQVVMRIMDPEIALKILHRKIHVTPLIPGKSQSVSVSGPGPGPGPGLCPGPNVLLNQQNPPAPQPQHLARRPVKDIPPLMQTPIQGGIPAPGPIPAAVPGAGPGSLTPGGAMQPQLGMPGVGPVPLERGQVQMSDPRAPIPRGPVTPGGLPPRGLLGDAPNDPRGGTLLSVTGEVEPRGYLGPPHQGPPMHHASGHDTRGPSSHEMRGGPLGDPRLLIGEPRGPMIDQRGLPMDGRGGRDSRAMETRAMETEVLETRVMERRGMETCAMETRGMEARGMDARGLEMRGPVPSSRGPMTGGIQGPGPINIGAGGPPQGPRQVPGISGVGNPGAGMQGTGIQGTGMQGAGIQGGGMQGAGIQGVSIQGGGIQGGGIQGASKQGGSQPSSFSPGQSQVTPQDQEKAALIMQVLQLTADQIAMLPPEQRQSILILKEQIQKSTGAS
UniProt A4D126: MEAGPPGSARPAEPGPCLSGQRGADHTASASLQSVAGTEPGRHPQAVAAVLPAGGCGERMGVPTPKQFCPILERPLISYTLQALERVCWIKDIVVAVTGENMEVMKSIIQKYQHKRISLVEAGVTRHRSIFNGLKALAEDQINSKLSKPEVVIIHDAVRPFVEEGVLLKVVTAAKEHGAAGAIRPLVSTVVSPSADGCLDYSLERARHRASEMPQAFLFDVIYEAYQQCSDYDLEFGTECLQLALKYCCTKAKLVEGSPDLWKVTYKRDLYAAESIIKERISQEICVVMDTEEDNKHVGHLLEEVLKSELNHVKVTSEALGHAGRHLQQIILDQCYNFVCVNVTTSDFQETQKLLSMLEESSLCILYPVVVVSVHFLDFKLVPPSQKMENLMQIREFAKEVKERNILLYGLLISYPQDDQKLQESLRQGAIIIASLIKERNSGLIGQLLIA
UniProt P50461: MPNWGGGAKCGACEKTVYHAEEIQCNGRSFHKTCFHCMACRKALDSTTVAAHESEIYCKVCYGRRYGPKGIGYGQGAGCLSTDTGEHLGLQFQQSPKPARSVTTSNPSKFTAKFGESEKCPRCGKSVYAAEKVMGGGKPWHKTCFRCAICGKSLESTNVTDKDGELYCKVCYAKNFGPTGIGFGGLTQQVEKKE
UniProt P46108: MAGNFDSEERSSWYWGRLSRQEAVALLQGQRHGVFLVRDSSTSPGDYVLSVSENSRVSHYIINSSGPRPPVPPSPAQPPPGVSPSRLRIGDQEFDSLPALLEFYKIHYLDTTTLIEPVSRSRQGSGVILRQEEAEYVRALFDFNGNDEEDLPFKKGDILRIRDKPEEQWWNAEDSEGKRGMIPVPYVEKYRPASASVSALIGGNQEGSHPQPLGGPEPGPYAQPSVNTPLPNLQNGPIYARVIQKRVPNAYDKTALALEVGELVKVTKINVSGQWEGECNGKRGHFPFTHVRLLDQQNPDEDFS
UniProt Q9P013: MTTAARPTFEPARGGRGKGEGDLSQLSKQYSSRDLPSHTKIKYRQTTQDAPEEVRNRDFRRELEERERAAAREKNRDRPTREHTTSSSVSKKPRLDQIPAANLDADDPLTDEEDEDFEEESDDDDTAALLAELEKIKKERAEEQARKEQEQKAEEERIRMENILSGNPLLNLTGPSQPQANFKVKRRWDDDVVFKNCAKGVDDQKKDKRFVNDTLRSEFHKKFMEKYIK
UniProt P21291: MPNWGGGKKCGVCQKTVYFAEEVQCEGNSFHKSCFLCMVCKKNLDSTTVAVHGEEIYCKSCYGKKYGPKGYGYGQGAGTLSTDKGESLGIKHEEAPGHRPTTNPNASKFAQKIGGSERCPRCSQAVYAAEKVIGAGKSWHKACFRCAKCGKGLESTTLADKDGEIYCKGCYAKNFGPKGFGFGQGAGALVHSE
UniProt Q13618, whole entry, looked up: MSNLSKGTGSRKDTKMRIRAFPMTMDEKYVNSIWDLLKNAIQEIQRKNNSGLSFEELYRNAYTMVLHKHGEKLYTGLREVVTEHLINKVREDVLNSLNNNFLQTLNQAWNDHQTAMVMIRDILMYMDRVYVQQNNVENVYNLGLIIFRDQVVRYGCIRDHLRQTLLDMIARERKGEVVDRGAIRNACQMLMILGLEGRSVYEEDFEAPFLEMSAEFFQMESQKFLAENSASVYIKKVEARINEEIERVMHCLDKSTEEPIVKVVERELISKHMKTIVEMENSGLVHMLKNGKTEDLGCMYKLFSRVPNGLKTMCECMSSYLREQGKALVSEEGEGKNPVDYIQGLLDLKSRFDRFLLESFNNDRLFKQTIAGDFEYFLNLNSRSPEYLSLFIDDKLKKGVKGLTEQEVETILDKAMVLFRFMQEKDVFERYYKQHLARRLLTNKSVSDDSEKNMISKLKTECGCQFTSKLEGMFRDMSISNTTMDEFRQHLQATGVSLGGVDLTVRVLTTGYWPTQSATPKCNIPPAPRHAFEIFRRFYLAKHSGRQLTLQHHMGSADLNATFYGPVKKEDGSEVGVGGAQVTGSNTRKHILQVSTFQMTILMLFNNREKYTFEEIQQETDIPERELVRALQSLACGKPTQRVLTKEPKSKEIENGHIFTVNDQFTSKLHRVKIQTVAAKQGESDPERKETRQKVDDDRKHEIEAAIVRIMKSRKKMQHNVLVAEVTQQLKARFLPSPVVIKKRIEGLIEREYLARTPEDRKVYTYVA
UniProt Q6UXH1: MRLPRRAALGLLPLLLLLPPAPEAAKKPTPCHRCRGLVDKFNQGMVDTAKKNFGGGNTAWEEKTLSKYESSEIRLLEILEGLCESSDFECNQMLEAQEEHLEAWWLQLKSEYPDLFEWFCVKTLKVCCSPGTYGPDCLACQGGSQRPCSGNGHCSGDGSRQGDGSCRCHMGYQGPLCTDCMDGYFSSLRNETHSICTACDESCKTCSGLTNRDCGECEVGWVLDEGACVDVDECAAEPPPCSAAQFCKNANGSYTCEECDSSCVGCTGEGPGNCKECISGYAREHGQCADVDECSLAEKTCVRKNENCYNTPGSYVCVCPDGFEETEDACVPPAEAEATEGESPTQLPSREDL
UniProt Q92793, whole entry, looked up: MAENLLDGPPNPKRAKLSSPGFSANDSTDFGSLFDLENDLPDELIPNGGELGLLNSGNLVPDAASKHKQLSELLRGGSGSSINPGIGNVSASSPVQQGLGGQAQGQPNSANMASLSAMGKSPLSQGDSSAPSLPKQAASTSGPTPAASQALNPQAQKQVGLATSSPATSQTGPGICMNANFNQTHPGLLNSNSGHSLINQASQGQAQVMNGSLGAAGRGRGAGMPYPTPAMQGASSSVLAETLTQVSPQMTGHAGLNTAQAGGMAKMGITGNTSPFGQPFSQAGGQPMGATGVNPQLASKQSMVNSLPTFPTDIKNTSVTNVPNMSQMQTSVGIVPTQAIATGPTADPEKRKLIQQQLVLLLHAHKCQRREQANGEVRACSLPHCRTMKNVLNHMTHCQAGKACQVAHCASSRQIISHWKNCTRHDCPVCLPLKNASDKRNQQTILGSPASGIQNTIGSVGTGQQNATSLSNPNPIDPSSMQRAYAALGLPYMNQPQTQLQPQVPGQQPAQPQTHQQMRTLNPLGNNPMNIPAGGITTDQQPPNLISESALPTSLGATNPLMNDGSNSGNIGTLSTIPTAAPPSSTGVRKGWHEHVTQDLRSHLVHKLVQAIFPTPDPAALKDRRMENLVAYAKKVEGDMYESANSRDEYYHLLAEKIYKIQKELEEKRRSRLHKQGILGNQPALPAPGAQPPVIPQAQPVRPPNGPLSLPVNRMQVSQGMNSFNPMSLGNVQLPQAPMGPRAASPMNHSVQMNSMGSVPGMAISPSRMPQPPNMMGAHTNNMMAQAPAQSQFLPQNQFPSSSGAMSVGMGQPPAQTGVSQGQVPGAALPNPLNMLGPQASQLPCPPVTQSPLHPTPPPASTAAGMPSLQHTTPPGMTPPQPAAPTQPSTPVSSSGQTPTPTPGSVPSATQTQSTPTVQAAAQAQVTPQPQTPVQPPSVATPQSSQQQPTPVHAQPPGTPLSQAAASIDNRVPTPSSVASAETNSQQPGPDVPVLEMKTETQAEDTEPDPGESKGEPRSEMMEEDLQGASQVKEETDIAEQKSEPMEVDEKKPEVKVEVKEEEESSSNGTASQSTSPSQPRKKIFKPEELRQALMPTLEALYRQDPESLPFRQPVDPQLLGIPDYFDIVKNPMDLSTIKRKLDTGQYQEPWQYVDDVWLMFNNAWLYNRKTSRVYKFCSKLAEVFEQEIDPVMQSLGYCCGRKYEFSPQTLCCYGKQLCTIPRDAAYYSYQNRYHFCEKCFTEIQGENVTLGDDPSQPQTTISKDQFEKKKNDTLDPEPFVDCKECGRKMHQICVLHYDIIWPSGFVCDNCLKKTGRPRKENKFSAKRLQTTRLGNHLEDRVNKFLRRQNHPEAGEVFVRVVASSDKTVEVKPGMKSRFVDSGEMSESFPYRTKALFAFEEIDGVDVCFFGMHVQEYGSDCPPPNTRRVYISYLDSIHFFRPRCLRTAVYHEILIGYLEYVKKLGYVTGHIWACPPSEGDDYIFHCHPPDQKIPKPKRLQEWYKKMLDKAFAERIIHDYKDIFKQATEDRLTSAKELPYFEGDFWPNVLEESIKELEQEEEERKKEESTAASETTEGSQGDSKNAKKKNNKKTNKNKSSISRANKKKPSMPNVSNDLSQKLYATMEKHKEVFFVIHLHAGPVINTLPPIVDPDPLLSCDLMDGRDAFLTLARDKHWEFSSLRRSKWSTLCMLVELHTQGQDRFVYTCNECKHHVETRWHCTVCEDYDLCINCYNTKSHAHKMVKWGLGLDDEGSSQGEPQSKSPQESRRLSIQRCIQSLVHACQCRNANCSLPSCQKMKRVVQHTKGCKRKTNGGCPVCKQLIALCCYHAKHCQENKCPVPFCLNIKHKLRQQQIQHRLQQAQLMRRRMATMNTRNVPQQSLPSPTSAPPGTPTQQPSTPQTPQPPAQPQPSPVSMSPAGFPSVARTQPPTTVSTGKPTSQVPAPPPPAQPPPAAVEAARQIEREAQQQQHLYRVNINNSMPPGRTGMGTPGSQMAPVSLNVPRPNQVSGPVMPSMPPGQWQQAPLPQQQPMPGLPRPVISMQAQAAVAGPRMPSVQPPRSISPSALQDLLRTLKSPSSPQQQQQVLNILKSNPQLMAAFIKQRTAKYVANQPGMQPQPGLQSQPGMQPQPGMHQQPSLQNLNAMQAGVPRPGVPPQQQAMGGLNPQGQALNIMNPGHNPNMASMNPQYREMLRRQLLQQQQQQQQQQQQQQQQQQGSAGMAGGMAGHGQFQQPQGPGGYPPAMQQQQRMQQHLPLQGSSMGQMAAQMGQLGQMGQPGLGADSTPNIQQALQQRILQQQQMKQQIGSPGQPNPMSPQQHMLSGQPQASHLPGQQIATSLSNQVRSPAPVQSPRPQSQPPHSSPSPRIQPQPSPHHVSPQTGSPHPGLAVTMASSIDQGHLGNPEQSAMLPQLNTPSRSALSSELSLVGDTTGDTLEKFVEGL
UniProt Q9UBX1: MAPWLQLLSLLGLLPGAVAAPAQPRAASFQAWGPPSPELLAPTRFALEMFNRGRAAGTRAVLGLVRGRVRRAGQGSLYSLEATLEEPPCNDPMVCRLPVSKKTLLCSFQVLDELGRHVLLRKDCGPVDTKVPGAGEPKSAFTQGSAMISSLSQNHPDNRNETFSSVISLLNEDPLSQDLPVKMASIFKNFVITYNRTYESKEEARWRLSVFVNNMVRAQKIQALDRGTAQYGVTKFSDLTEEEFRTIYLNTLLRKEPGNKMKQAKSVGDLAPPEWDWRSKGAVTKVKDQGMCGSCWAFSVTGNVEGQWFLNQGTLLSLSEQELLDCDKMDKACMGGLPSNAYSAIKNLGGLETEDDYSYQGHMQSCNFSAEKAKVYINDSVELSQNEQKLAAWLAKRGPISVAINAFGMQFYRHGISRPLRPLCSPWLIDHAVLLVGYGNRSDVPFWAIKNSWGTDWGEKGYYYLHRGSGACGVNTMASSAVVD
UniProt P09603: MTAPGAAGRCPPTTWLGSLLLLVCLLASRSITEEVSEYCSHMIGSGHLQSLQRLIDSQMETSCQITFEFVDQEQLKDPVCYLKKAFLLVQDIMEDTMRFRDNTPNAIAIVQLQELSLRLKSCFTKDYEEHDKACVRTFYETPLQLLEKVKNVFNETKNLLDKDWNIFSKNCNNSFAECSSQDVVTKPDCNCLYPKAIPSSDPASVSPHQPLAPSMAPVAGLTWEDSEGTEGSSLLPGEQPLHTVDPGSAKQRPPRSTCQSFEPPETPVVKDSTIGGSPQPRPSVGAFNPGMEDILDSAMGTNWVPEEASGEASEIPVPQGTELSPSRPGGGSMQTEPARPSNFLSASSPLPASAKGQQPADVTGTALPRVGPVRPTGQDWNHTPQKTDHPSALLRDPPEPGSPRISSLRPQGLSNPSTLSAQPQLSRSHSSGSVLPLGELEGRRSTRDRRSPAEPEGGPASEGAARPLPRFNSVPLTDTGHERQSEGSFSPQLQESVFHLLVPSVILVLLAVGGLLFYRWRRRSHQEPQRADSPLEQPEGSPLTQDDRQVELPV

Key:
Assay in all cases: log2 fold change, soluble protein after heating vs DMSO (PISA); higher = thermal stabilisation; K562 lysate, 10 uM; active = over 0.2 and 3.5 SD of the protein, either way, in both replicates (recomputed)
alvocidib = compound: CN1CC[C@H](c2c(O)cc(O)c3c(=O)cc(-c4ccccc4Cl)oc23)[C@H](O)C1 [alvocidib]
Outline: (§1)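 Values give the log-two fold change in thermal stability against solvent controls, from duplicates. Crude K562 extract at 1 mg/mL protein, made by dounce homogenisation in PBS pH 7.4 with 1 mM MgCl2, was treated with 10 μM compound for 30 min. After 3 min heating across 48°C-58°C, aliquots were pooled, adjusted to 0.5% NP-40 at 4°C and centrifuged at 21,000xg for 90 min. The supernatant was measured by TMTpro 16plex LC-MS/MS with channel sums equalised.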

Tubastatin A = compound: CN1CCc2c(c3ccccc3n2Cc2ccc(C(=O)NO)cc2)C1 [Tubastatin A]
Outline: as §1

[1] = compound: CNC(=O)C1=CC=CC=C1NC2=NC(=NC=C2Cl)NC3=C(C=C(C=C3)N4CCOCC4)OC
Outline: as §1

defactinib = compound: CNC(=O)c1ccc(Nc2ncc(C(F)(F)F)c(NCc3nccnc3N(C)S(C)(=O)=O)n2)cc1 [defactinib]
Outline: as §1

[2] = compound: CNc1nc(-c2ccc3c(N)n[nH]c3c2)cc(N2C[C@@H](C(=O)NC3CCCCC3)CC[C@H]2C)n1
Outline: as §1

encorafenib = compound: COC(=O)N[C@@H](C)CNc1nccc(-c2cn(C(C)C)nc2-c2cc(Cl)cc(NS(C)(=O)=O)c2F)n1 [encorafenib]
Outline: as §1

[3] = compound: COC(=O)[C@H](CCSC)NC(=O)C1=C(C=C(C=C1)NC[C@H](CS)N)C2=CC=CC=C2
Outline: as §1

alisertib = compound: COc1cc(Nc2ncc3c(n2)-c2ccc(Cl)cc2C(c2c(F)cccc2OC)=NC3)ccc1C(=O)O [alisertib]
Outline: as §1

[4] = compound: COc1cc2nc(-c3cc(F)ccc3O)nc(N[C@@H]3CNC[C@H]3C(C)(C)O)c2cc1OC
Outline: as §1

gefitinib = compound: COc1cc2ncnc(Nc3ccc(F)c(Cl)c3)c2cc1OCCCN1CCOCC1 [gefitinib]
Outline: as §1

Measured: log2 fold change

CTCF (UniProt P49711)
inactive: alvocidib 0.074 | Tubastatin A 0.034 | [1] 0.018 | defactinib -0.016 | [2] -0.012 | encorafenib -0.02 | [3] -0.047 | alisertib 0.001 | [4] -0.008 | gefitinib 0.047

CSTB (UniProt P04080)
inactive: alvocidib -0.051 | Tubastatin A 0.089 | [1] -0.023 | defactinib 0.069 | [2] 0.011 | encorafenib 0.025 | [3] -0.011 | alisertib 0.023 | [4] -0.042 | gefitinib -0.143

CTBP1 (UniProt Q13363)
inactive: alvocidib -0.005 | Tubastatin A -0.031 | [1] -0.004 | defactinib -0.016 | [2] -0.002 | encorafenib 0.009 | [3] -0.007 | alisertib -0.006 | [4] 0.023 | gefitinib -0.159

CSTF2T (UniProt Q9H0L4)
inactive: alvocidib -0.026 | Tubastatin A 0.008 | [1] 0.015 | defactinib 0.007 | [2] 0.035 | encorafenib 0 | [3] -0.057 | alisertib 0.031 | [4] -0.005 | gefitinib 0.006

CTPS1 (UniProt P17812)
inactive: alvocidib 0.006 | Tubastatin A -0.101 | [1] -0.021 | defactinib 0 | [2] -0.048 | encorafenib 0.016 | [3] 0.038 | alisertib -0.019 | [4] -0.001 | gefitinib -0.015

CRPPA (UniProt A4D126)
inactive: alvocidib -0.022 | Tubastatin A 0.032 | [1] -0.014 | defactinib -0.015 | [2] -0.016 | encorafenib 0.012 | [3] -0.063 | alisertib 0.003 | [4] 0.014 | gefitinib -0.006

CSRP3 (UniProt P50461)
inactive: alvocidib -0.071 | Tubastatin A 0.007 | [1] 0.121 | defactinib -0.049 | [2] -0.056 | encorafenib -0.033 | [3] -0.182 | alisertib -0.05 | [4] 0.023 | gefitinib -0.071

CYFIP2 (UniProt Q96F07)
inactive: alvocidib -0.008 | Tubastatin A 0.036 | [1] -0.019 | defactinib -0.015 | [2] -0.011 | encorafenib 0.014 | [3] -0.033 | alisertib 0.004 | [4] 0.011 | gefitinib 0.004

7 successive records already listed:
CTCF (UniProt P49711)
inactive: alvocidib 0.074 | Tubastatin A 0.034 | [1] 0.018 | defactinib -0.016 | [2] -0.012 | encorafenib -0.02 | [3] -0.047 | alisertib 0.001 | [4] -0.008 | gefitinib 0.047

CSTB (UniProt P04080)
inactive: alvocidib -0.051 | Tubastatin A 0.089 | [1] -0.023 | defactinib 0.069 | [2] 0.011 | encorafenib 0.025 | [3] -0.011 | alisertib 0.023 | [4] -0.042 | gefitinib -0.143

CTBP1 (UniProt Q13363)
inactive: alvocidib -0.005 | Tubastatin A -0.031 | [1] -0.004 | defactinib -0.016 | [2] -0.002 | encorafenib 0.009 | [3] -0.007 | alisertib -0.006 | [4] 0.023 | gefitinib -0.159

CSTF2T (UniProt Q9H0L4)
inactive: alvocidib -0.026 | Tubastatin A 0.008 | [1] 0.015 | defactinib 0.007 | [2] 0.035 | encorafenib 0 | [3] -0.057 | alisertib 0.031 | [4] -0.005 | gefitinib 0.006

CTPS1 (UniProt P17812)
inactive: alvocidib 0.006 | Tubastatin A -0.101 | [1] -0.021 | defactinib 0 | [2] -0.048 | encorafenib 0.016 | [3] 0.038 | alisertib -0.019 | [4] -0.001 | gefitinib -0.015

CRPPA (UniProt A4D126)
inactive: alvocidib -0.022 | Tubastatin A 0.032 | [1] -0.014 | defactinib -0.015 | [2] -0.016 | encorafenib 0.012 | [3] -0.063 | alisertib 0.003 | [4] 0.014 | gefitinib -0.006

CSRP3 (UniProt P50461)
inactive: alvocidib -0.071 | Tubastatin A 0.007 | [1] 0.121 | defactinib -0.049 | [2] -0.056 | encorafenib -0.033 | [3] -0.182 | alisertib -0.05 | [4] 0.023 | gefitinib -0.071

The results go on.

CRNKL1 (UniProt Q9BZJ0)
inactive: alvocidib -0.024 | Tubastatin A 0.135 | [1] -0.009 | defactinib 0.038 | [2] -0.026 | encorafenib 0.132 | [3] 0.061 | alisertib -0.018 | [4] 0.063 | gefitinib 0.019

CRK (UniProt P46108)
inactive: alvocidib 0 | Tubastatin A 0.06 | [1] 0.005 | defactinib -0.014 | [2] 0.013 | encorafenib 0 | [3] -0.057 | alisertib -0.012 | [4] 0.008 | gefitinib 0.017

CYB561A3 isoform 2 (UniProt Q8NBI2)
inactive: alvocidib -0.112 | Tubastatin A 0.011 | [1] -0.042 | defactinib -0.028 | [2] -0.002 | encorafenib -0.034 | [3] 0.025 | alisertib -0.034 | [4] 0.072 | gefitinib 0.015

CREB3L2 (UniProt Q70SY1)
inactive: alvocidib -0.065 | Tubastatin A 0.084 | [1] 0.011 | defactinib -0.066 | [2] 0.139 | encorafenib -0.012 | [3] 0.023 | alisertib -0.093 | [4] 0.012 | gefitinib -0.16

CWC15 (UniProt Q9P013)
inactive: alvocidib 0.03 | Tubastatin A 0.09 | [1] 0.016 | defactinib -0.001 | [2] 0.031 | encorafenib -0.028 | [3] -0.001 | alisertib -0.073 | [4] 0 | gefitinib 0.014

CSRP1 (UniProt P21291)
inactive: alvocidib -0.1 | Tubastatin A 0.08 | [1] 0.041 | defactinib 0.025 | [2] 0.084 | encorafenib -0.048 | [3] -0.062 | alisertib 0.007 | [4] 0.005 | gefitinib -0.037

CRYZ (UniProt Q08257)
inactive: alvocidib -0.022 | Tubastatin A 0.053 | [1] -0.007 | defactinib -0.021 | [2] 0.017 | encorafenib 0.003 | [3] -0.007 | alisertib -0.005 | [4] 0.013 | gefitinib -0.013

CTNNA2 (UniProt P26232)
inactive: alvocidib -0.052 | Tubastatin A 0.045 | [1] 0.044 | defactinib -0.024 | [2] 0.021 | encorafenib 0.011 | [3] -0.039 | alisertib 0.009 | [4] 0 | gefitinib -0.08

CSNK2B (UniProt P67870)
inactive: alvocidib -0.005 | Tubastatin A -0.012 | defactinib 0.025 | [2] 0.053 | encorafenib -0.026 | [3] -0.006 | alisertib -0.054 | [4] 0.052 | gefitinib -0.022
active: [1] 0.324

CTU2 (UniProt Q2VPK5)
inactive: alvocidib 0.022 | Tubastatin A -0.105 | [1] 0.015 | defactinib 0 | [2] -0.05 | encorafenib 0.023 | [3] -0.026 | alisertib 0.018 | [4] -0.027 | gefitinib 0.005

CT45A10 (UniProt P0DMU9)
inactive: alvocidib 0.016 | Tubastatin A -0.026 | [1] -0.022 | defactinib 0.042 | [2] -0.066 | encorafenib 0.007 | [3] -0.065 | alisertib -0.003 | [4] -0.021 | gefitinib 0.034

CSNK2A2 (UniProt P19784)
inactive: alvocidib 0.101 | Tubastatin A -0.059 | [1] 0.321 | defactinib 0.172 | [2] -0.022 | encorafenib -0.047 | [3] 0.012 | alisertib 0.078 | [4] 0.135 | gefitinib 0.004

CTTN (UniProt Q14247)
inactive: alvocidib 0.059 | Tubastatin A -0.019 | [1] 0.034 | defactinib 0.105 | [2] 0 | encorafenib 0.023 | [3] -0.022 | alisertib -0.007 | [4] -0.03 | gefitinib 0.048

CUL3 (UniProt Q13618)
inactive: alvocidib 0.024 | Tubastatin A 0.015 | [1] -0.001 | defactinib -0.011 | [2] -0.013 | encorafenib 0.001 | [3] -0.101 | alisertib 0.006 | [4] 0.009 | gefitinib 0.034

CYB5R2 (UniProt Q6BCY4)
inactive: alvocidib -0.054 | Tubastatin A 0.024 | [1] -0.009 | defactinib 0 | [2] 0.023 | encorafenib -0.01 | [3] 0.02 | alisertib -0.048 | [4] -0.003 | gefitinib 0.028

CRELD2 isoform 5 (UniProt Q6UXH1)
inactive: alvocidib -0.001 | Tubastatin A 0.072 | [1] 0.038 | defactinib -0.006 | [2] -0.074 | encorafenib 0.03 | [3] -0.025 | alisertib 0.05 | [4] 0.005 | gefitinib -0.091

CTBP2 isoform 2 (UniProt P56545)
inactive: alvocidib 0.01 | Tubastatin A -0.048 | [1] 0.034 | defactinib -0.016 | [2] -0.017 | encorafenib -0.072 | [3] 0.019 | alisertib 0.055 | [4] 0.001 | gefitinib 0.004

CSNK1E (UniProt P49674)
inactive: alvocidib 0.021 | Tubastatin A -0.159 | [1] 0.129 | defactinib -0.017 | [2] 0.093 | encorafenib -0.032 | [3] 0.028 | alisertib -0.034 | [4] 0.048 | gefitinib 0.012

CREBBP (UniProt Q92793)
inactive: alvocidib 0.018 | Tubastatin A -0.009 | [1] -0.017 | defactinib 0.025 | [2] -0.01 | encorafenib 0.053 | [3] -0.004 | alisertib -0.045 | [4] -0.107 | gefitinib 0.041

CTSF (UniProt Q9UBX1)
inactive: alvocidib 0.142 | Tubastatin A -0.452 | [1] -0.147

CSDE1 isoform 4 (UniProt O75534)
inactive: alvocidib 0 | Tubastatin A -0.104 | [1] 0.01 | defactinib 0 | [2] -0.014 | encorafenib -0.008 | alisertib 0.004 | [4] -0.021 | gefitinib -0.014
active: [3] 0.209

CUL4A (UniProt Q13619)
inactive: alvocidib 0.003 | Tubastatin A 0.022 | [1] 0.006 | defactinib -0.012 | [2] 0.037 | encorafenib 0.012 | [3] 0.046 | alisertib -0.007 | [4] -0.005 | gefitinib -0.004

CSF1 (UniProt P09603)
inactive: alvocidib -0.004
